Target: AChE (Electrophorus electricus, UniProt O42275)
Test: biochemical
Protocol: The modified method of Ellman et al. was adopted to measure AChE activity. Briefly, 25 µl (0.3 U/ml) AChE from Electric eel fish (Electrophorus electricus) was incubated with and without different concentrations of drugs selected from Molecular Docking studies. The reaction was carried out for 15 min at 25°C. […] Total volume of the reaction was made up to 1 ml by Tris buffer, pH 8.0. ATCI hydrolysis was measured by colored product formation, 5-thio-2-nitrobenzoate anion by reaction between DTNB and thiocholine, a hydrolysis product of ATCI. The formation of the colored product was measured at 405 nm wavelength after 30 min. The background was determined from negative controls (omission of AChE enzyme).
Lineweaver-Burk double reciprocal plot was plotted in order to determine the Km. […] The Ki was calculated directly from IC50 value using Cheng-Prussoffs classical equation [45]. [drawing 1]
The reciprocals of reaction rate (1/v) for each inhibitor concentration were plotted against the reciprocals of the substrate concentrations (1/S).

Chains of the proteins cited; added tags and fusions are not shown. Residues count along the entry.
UniProt O42275, 24-633: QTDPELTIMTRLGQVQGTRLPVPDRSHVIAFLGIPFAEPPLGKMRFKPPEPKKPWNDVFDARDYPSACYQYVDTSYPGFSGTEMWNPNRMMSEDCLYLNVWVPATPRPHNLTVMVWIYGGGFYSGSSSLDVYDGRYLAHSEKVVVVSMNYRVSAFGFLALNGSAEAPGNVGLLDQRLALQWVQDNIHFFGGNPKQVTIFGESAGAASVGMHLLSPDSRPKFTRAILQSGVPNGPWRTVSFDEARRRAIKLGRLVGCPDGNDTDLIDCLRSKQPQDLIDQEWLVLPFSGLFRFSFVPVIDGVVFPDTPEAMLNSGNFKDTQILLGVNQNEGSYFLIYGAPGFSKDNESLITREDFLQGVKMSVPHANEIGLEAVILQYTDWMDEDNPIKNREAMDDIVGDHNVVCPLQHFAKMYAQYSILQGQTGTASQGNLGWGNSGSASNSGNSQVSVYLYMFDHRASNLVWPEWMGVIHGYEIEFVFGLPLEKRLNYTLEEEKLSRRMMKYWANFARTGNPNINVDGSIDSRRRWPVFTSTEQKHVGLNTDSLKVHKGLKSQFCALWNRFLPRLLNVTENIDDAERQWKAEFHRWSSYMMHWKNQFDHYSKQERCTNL

**Q.** `CN(C)CCC=C1c2ccccc2COc2ccccc21` [doxepin] was tested. Which IC50 did it give?
**A.** 480 µM

**Q.** `CNCCCC12CCC(c3ccccc31)c1ccccc12` [maprotiline] was tested. Which IC50 did it give?
**A.** 100 µM
